At least one compound was matched to its structure with a doubt left.
Tested on: Winter wheat
Assay: Field trials 2: winter wheat, Germany (Bergisches Land)
Format: in vivo, Winter wheat (variety Dekan)
Conditions: in comparison to the untreated control
Protocol: b) Field trials 2: Winter wheat: Germany (Bergisches Land):
Seeds of the variety “Dekan” were planted on December with a seed density of 400 seeds/m^2 on a non-fertilized soil. The plot size was 6 m×2.5 m (=15 m^2) and four randomised replicates were used. The application of plant protection products were carried out according to the good agricultural practise. The evaluation of different growth parameters was done during the season.
Dosages Winter Wheat (Bergisches Land):
Base: Insecticide (I): Imidacloprid; Fungicides (F): Fluoxastrobin & Tebuconazole & Prothioconazole.

## CC1=CC(O/C=C2/C(=O)OC3c4ccccc4CC23)OC1=O (stereo not shown) [Compound A1]
  yield in dt/ha, in words: increased yield

Reference: US9131685B2, “Compositions comprising a strigolactone compound and a chito-oligosaccharide compound for enhanced plant growth and yield” (Bayer CropScience AG, priority 2009, dated 2015)
